Source: patent publication US10450346B2, “Immunotherapy against several tumors of the blood, in particular chronic lymphoid leukemia (CLL)” (Immatics biotechnologies GmbH, priority 2014, dated 2019)

Legend:
[1] = test system: primary CLL samples (PBMC from CLL patients), HLA class I ligands; assay: HLA class I ligandome analysis by LC-MS/MS (frequency of HLA restricted presentation); design: species or system human; conditions: for Number of positive CLLs: CLL patient HLA class I ligandomes (n = 30); for Number of positive CLLs (frequency [%]): source protein (LiTAA) representation in CLL patient HLA class I ligandomes (n = 30)
[2] = test system: primary CLL samples (PBMC from CLL patients), HLA class II ligands; assay: HLA class II ligandome analysis by LC-MS/MS (frequency of HLA restricted presentation); design: species or system human; conditions: CLL patients (n=20), source protein
[3] = test system: HLA class II (HLA-DR) on CD5+CD19+ CLL cells; assay: Quantification of HLA class II surface expression (QIFIKIT flow cytometry) under therapy; format: in vivo, human
[4] = test system: HLA class I ligandome of CLL patients; assay: Longitudinal HLA class I ligandome analysis over the course of therapy (label-free quantification); format: in vivo, human; conditions: for detectable LiTAPs showing significant changes in abundance: post versus pre therapy: rituximab/bendamustin 48 h/24 h, alemtuzumab day 7, ofatumumab 24 h; for HLA class I ligands with differential presentation: ≥2-fold change, p≤0.05, post versus pre therapy, single patients

“UDP-Gal:betaGlcNAc beta 1,4-galactosyltransferase, polypeptide 1 [B4GALT1]” was tested, and the “Number of positive CLLs” value [1] was 8, the “Number of positive CLLs (frequency [%])” value [1] was 26.7% and the “representation frequency in HLA class II ligandomes” value [2] was 30.0%.

In the case of alemtuzumab, the “mean HLA class II surface expression” value ([3]; At7d: 7 d after alemtuzumab, 1 patient) is reported as 55,500, the “detectable LiTAPs showing significant changes in abundance” value [4] is reported as 12.5% and the “HLA class I ligands with differential presentation” value [4] is reported as 33.6%.

For “major histocompatibility complex, class II, DM alpha [HLA-DMA]”, the “Number of positive CLLs” value [1] was 6, the “Number of positive CLLs (frequency [%])” value [1] was 20.0% and the “representation frequency in HLA class II ligandomes” value [2] was 20%.

For ofatumumab, the “detectable LiTAPs showing significant changes in abundance” value [4] was 20.0% and the “HLA class I ligands with differential presentation” value [4] was 21.6%.

In the case of rituximab, the “mean HLA class II surface expression” value ([3]; Rt24h: 24 h after rituximab, 4 patients) is reported as 27,500.
